Measurements published in PMC12510319.

Target: T1, ISA1-N628K, product of su1-Bn2, native protein of maize endosperm (maize (Zea mays L.) (endogenous in endosperm)) (UniProt O22637)
T1 sequence: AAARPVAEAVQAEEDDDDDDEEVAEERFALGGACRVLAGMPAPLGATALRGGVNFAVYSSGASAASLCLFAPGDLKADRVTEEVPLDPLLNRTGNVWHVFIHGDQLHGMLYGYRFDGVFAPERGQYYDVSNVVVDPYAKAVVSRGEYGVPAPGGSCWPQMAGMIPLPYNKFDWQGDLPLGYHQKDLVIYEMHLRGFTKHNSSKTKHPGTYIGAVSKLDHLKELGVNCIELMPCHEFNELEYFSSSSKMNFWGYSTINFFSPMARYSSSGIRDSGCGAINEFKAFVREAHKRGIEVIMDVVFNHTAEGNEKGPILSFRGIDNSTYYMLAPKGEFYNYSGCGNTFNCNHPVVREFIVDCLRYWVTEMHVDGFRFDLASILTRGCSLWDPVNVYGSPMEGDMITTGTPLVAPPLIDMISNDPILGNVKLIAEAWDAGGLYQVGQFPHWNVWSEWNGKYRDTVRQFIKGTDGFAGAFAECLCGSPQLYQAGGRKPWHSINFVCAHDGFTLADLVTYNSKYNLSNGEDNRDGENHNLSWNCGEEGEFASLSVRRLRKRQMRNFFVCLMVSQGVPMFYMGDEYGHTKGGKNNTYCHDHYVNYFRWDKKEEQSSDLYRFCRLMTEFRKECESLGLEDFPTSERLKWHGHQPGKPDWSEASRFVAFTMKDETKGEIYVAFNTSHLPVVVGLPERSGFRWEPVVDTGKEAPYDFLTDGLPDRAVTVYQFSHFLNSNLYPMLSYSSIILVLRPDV
Experiment: SEC; soluble extracts of 20 DAP endosperm on Superose 6 Increase 10/300 GL; 50 mM Tris-acetate pH 7.5, 150 mM NaCl, 1 mM DTT; 4 °C; fractions analysed by SDS-PAGE and immunoblot

binding: binds
Sequence: ISOAMYLASE 2 (ISA2), native protein of maize endosperm

These are yes or no findings as the source states them, for the method shown. Binding calls can cover weak binding; strength is not graded here.
